From the supplement of paper PMC9254222
The full ranking holds about 1,100 compounds; the median of “Renilla luciferase signal (cell health) relative to plate median” is about 0.97, and the highest 2% start at about 1.6. Only a part is listed here, and it is no random draw.

System: HEK293T (UBE3A T485A transfected, BAR Wnt reporter)
Experiment: Renilla luciferase signal (cell health) relative to plate median (fold (linear ratio)); higher = higher Renilla signal
Conditions: 24 h
In short: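 HEK293T cells were seeded at 4500 cells/well in white 384-well plates and grown in DMEM with 10% FBS at 37°C and 5% CO2. The cells were transfected using Fugene 6 with a BAR firefly luciferase Wnt reporter, TK-Renilla and an expression plasmid, and four hours later robots added the chemicals at 0.01–100 uM for 24 h before a Dual-Glo luciferase readout. Wnt activity was taken as the firefly/Renilla ratio and cell health as raw Renilla, each median-centred per plate. Values are averages of four biological replicates.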

SMILES: COc1cc(-c2ccc(N)c(OC)c2)ccc1N [3,3'-Dimethoxybenzidine]
- Renilla luciferase signal (concentration: 0.1 uM): 0.89
- Renilla luciferase signal (concentration: 1 uM): 0.92
- Renilla luciferase signal (concentration: 10 uM): 0.684
- Renilla luciferase signal (concentration: 100 uM): 0.388

SMILES: CC1(c2ccc(Oc3ccccc3)cc2)OC(=O)N(Nc2ccccc2)C1=O (centres undefined) [Famoxadone]
- Renilla luciferase signal (concentration: 0.01 uM): 1.07
- Renilla luciferase signal (concentration: 0.1 uM): 1.08
- Renilla luciferase signal (concentration: 1 uM): 1.07
- Renilla luciferase signal (concentration: 10 uM): 0.383
- Renilla luciferase signal (concentration: 100 uM): 1.15

SMILES: C=CC(=O)NCNC(=O)C=C [N,N'-Methylenebisacrylamide]
- Renilla luciferase signal (concentration: 0.1 uM): 0.813
- Renilla luciferase signal (concentration: 1 uM): 0.815
- Renilla luciferase signal (concentration: 10 uM): 0.84
- Renilla luciferase signal (concentration: 100 uM): 0.722

SMILES: Brc1ccc(Oc2ccccc2)cc1 [p-Bromodiphenyl ether]
- Renilla luciferase signal (concentration: 0.1 uM): 0.896
- Renilla luciferase signal (concentration: 1 uM): 0.914
- Renilla luciferase signal (concentration: 10 uM): 0.837
- Renilla luciferase signal (concentration: 100 uM): 0.987

SMILES: CCCSP(=O)(OCC)Oc1ccc(Br)cc1Cl (centres undefined) [Profenofos]
- Renilla luciferase signal (concentration: 0.01 uM): 0.9
- Renilla luciferase signal (concentration: 0.1 uM): 0.888
- Renilla luciferase signal (concentration: 1 uM): 0.969
- Renilla luciferase signal (concentration: 10 uM): 1
- Renilla luciferase signal (concentration: 100 uM): 0.894

SMILES: CN(C)N=O [N-Nitrosodimethylamine]
- Renilla luciferase signal (concentration: 0.1 uM): 0.934
- Renilla luciferase signal (concentration: 1 uM): 0.919
- Renilla luciferase signal (concentration: 10 uM): 0.945
- Renilla luciferase signal (concentration: 100 uM): 1.15

SMILES: CCCCCCCCCC(CC)c1ccc(S(=O)(=O)O)cc1.OCCN(CCO)CCO (centres undefined) [Dodecylbenzene sulfonate triethanolamine(1:1)]
- Renilla luciferase signal (concentration: 0.1 uM): 1.09
- Renilla luciferase signal (concentration: 1 uM): 0.943
- Renilla luciferase signal (concentration: 10 uM): 0.966
- Renilla luciferase signal (concentration: 100 uM): 0.841

SMILES: c1cc2ccc3cccc4ccc(c1)c2c34 [Pyrene]
- Renilla luciferase signal (concentration: 0.1 uM): 0.967
- Renilla luciferase signal (concentration: 1 uM): 0.928
- Renilla luciferase signal (concentration: 10 uM): 1.05
- Renilla luciferase signal (concentration: 100 uM): 0.889

SMILES: COc1cc(-c2ccc(N)c(OC)c2)ccc1N.Cl.Cl [3,3'-Dimethoxybenzidine dihydrochloride]
- Renilla luciferase signal (concentration: 0.1 uM): 0.847
- Renilla luciferase signal (concentration: 1 uM): 0.823
- Renilla luciferase signal (concentration: 10 uM): 0.799
- Renilla luciferase signal (concentration: 100 uM): 0.158

SMILES: CC(Cl)(Cl)C(=O)O [Dalapon]
- Renilla luciferase signal (concentration: 0.1 uM): 0.848
- Renilla luciferase signal (concentration: 1 uM): 0.831
- Renilla luciferase signal (concentration: 10 uM): 0.854
- Renilla luciferase signal (concentration: 100 uM): 0.956

SMILES: C#CCOS(=O)OC1CCCCC1Oc1ccc(C(C)(C)C)cc1 (centres undefined) [Propargite]
- Renilla luciferase signal (concentration: 0.01 uM): 0.841
- Renilla luciferase signal (concentration: 0.1 uM): 0.816
- Renilla luciferase signal (concentration: 1 uM): 1.02
- Renilla luciferase signal (concentration: 10 uM): 0.994
- Renilla luciferase signal (concentration: 100 uM): 0.0642

SMILES: Cc1cc(C)cc(C)c1 [1,3,5-Trimethylbenzene]
- Renilla luciferase signal (concentration: 0.1 uM): 1.1
- Renilla luciferase signal (concentration: 1 uM): 1.15
- Renilla luciferase signal (concentration: 10 uM): 1.17
- Renilla luciferase signal (concentration: 100 uM): 1.33

SMILES: Cc1cc(C2CC2)nc(Nc2ccccc2)n1 [Cyprodinil]
- Renilla luciferase signal (concentration: 0.01 uM): 1.12
- Renilla luciferase signal (concentration: 0.1 uM): 1.03
- Renilla luciferase signal (concentration: 1 uM): 1.11
- Renilla luciferase signal (concentration: 10 uM): 1.08
- Renilla luciferase signal (concentration: 100 uM): 0.557

SMILES: C[C@]12CCC(=O)C[C@@H]1CC[C@@H]1[C@@H]2CC[C@]2(C)[C@@H](O)CC[C@@H]12 [5alpha-Dihydrotestosterone]
- Renilla luciferase signal (concentration: 100 uM): 2.06

SMILES: CCCCOC(=O)c1ccccc1C(=O)OCc1ccccc1 [Benzyl butyl phthalate]
- Renilla luciferase signal (concentration: 0.1 uM): 1.05
- Renilla luciferase signal (concentration: 1 uM): 1.23
- Renilla luciferase signal (concentration: 10 uM): 1.28
- Renilla luciferase signal (concentration: 100 uM): 1.04

SMILES: CCOP(=S)(OCC)SCSCC [Phorate]
- Renilla luciferase signal (concentration: 0.1 uM): 1.09
- Renilla luciferase signal (concentration: 1 uM): 0.968
- Renilla luciferase signal (concentration: 10 uM): 1.1
- Renilla luciferase signal (concentration: 100 uM): 1.18

SMILES: Clc1ccc(Cl)c(Cl)c1 [1,2,4-Trichlorobenzene]
- Renilla luciferase signal (concentration: 0.1 uM): 1.24
- Renilla luciferase signal (concentration: 1 uM): 1.27
- Renilla luciferase signal (concentration: 10 uM): 1.34
- Renilla luciferase signal (concentration: 100 uM): 1.39

SMILES: CCCCCCOC(=O)c1ccccc1C(=O)OCCCCCC [Dihexyl phthalate]
- Renilla luciferase signal (concentration: 0.1 uM): 1.38
- Renilla luciferase signal (concentration: 1 uM): 1.19
- Renilla luciferase signal (concentration: 10 uM): 1.17
- Renilla luciferase signal (concentration: 100 uM): 1.16

SMILES: NC1=NC(O)C2C3OC4(O)OC(C(O)C2(N1)C4O)C3(O)CO (centres undefined) [Tetrodotoxin (TTX)]
- Renilla luciferase signal (concentration: 0.01 uM): 1.02
- Renilla luciferase signal (concentration: 0.1 uM): 0.976
- Renilla luciferase signal (concentration: 1 uM): 0.904
- Renilla luciferase signal (concentration: 10 uM): 1.03
- Renilla luciferase signal (concentration: 100 uM): 2.57

SMILES: CC1(C)C(C=C(Cl)Cl)C1C(=O)OC(C#N)c1ccc(F)c(Oc2ccccc2)c1 (centres undefined) [Cyfluthrin]
- Renilla luciferase signal (concentration: 0.01 uM): 1.01
- Renilla luciferase signal (concentration: 0.1 uM): 1.31
- Renilla luciferase signal (concentration: 1 uM): 1.27
- Renilla luciferase signal (concentration: 10 uM): 0.975
- Renilla luciferase signal (concentration: 100 uM): 1.1

SMILES: C=CCOC(=O)c1ccccc1C(=O)OCC=C [Diallyl phthalate]
- Renilla luciferase signal (concentration: 0.1 uM): 0.826
- Renilla luciferase signal (concentration: 1 uM): 0.959
- Renilla luciferase signal (concentration: 10 uM): 0.98
- Renilla luciferase signal (concentration: 100 uM): 1.09

SMILES: CC(O)CCO (centres undefined) [1,3-Butanediol]
- Renilla luciferase signal (concentration: 0.1 uM): 1.06
- Renilla luciferase signal (concentration: 1 uM): 1.08
- Renilla luciferase signal (concentration: 10 uM): 1.16
- Renilla luciferase signal (concentration: 100 uM): 1.47

SMILES: CCOC(=O)CC(SP(=S)(OC)OC)C(=O)OCC (centres undefined) [Malathion]
- Renilla luciferase signal (concentration: 0.01 uM): 0.756
- Renilla luciferase signal (concentration: 0.1 uM): 0.819
- Renilla luciferase signal (concentration: 1 uM): 1.01
- Renilla luciferase signal (concentration: 10 uM): 0.843
- Renilla luciferase signal (concentration: 100 uM): 1.02

SMILES: C=CCC1=C(C)C(OC(=O)C2C(C=C(C)C)C2(C)C)CC1=O (centres undefined) [Allethrin]
- Renilla luciferase signal (concentration: 0.01 uM): 0.962
- Renilla luciferase signal (concentration: 0.1 uM): 1.01
- Renilla luciferase signal (concentration: 1 uM): 1.02
- Renilla luciferase signal (concentration: 10 uM): 1.06
- Renilla luciferase signal (concentration: 100 uM): 0.791

SMILES: CC(C)N(C(=O)COc1nnc(C(F)(F)F)s1)c1ccc(F)cc1 [Flufenacet]
- Renilla luciferase signal (concentration: 0.01 uM): 0.851
- Renilla luciferase signal (concentration: 0.1 uM): 1.02
- Renilla luciferase signal (concentration: 1 uM): 0.998
- Renilla luciferase signal (concentration: 10 uM): 1.08
- Renilla luciferase signal (concentration: 100 uM): 1.01

SMILES: CCc1cccc(CC)c1N [2,6-Diethylaniline]
- Renilla luciferase signal (concentration: 0.1 uM): 0.537
- Renilla luciferase signal (concentration: 1 uM): 0.613
- Renilla luciferase signal (concentration: 10 uM): 0.518
- Renilla luciferase signal (concentration: 100 uM): 0.414

SMILES: O=C(O)CCCOc1ccc(Cl)cc1Cl
- Renilla luciferase signal (concentration: 0.01 uM): 1.02
- Renilla luciferase signal (concentration: 0.1 uM): 0.895
- Renilla luciferase signal (concentration: 1 uM): 0.898
- Renilla luciferase signal (concentration: 10 uM): 0.957
- Renilla luciferase signal (concentration: 100 uM): 1.44

SMILES: ClC1(Cl)C2(Cl)C3(Cl)C4(Cl)C(Cl)(Cl)C5(Cl)C3(Cl)C1(Cl)C5(Cl)C24Cl (centres undefined) [Mirex]
- Renilla luciferase signal (concentration: 0.1 uM): 1.03
- Renilla luciferase signal (concentration: 1 uM): 1.1
- Renilla luciferase signal (concentration: 10 uM): 1.12
- Renilla luciferase signal (concentration: 100 uM): 1.14

SMILES: CCOP(=S)(Oc1ccc([N+](=O)[O-])cc1)c1ccccc1 (centres undefined)
- Renilla luciferase signal (concentration: 0.1 uM): 0.992
- Renilla luciferase signal (concentration: 1 uM): 0.93
- Renilla luciferase signal (concentration: 10 uM): 1.06
- Renilla luciferase signal (concentration: 100 uM): 1.23

SMILES: COc1cc(OC)nc(NC(=O)[N-]S(=O)(=O)c2ncccc2OCC(F)(F)F)n1.[Na+] [Trifloxysulfuron-sodium]
- Renilla luciferase signal (concentration: 0.01 uM): 0.702
- Renilla luciferase signal (concentration: 0.1 uM): 0.86
- Renilla luciferase signal (concentration: 1 uM): 0.851
- Renilla luciferase signal (concentration: 10 uM): 0.762
- Renilla luciferase signal (concentration: 100 uM): 1.24

SMILES: CNC(=O)CSP(=S)(OC)OC [Dimethoate]
- Renilla luciferase signal (concentration: 100 uM): 1.67

SMILES: C=CCC1=C(C)[C@@H](OC(=O)[C@@H]2[C@@H](C=C(C)C)C2(C)C)CC1=O [S-Bioallethrin]
- Renilla luciferase signal (concentration: 0.01 uM): 0.864
- Renilla luciferase signal (concentration: 0.1 uM): 1.03
- Renilla luciferase signal (concentration: 1 uM): 0.952
- Renilla luciferase signal (concentration: 10 uM): 0.869
- Renilla luciferase signal (concentration: 100 uM): 0.425
